The nature of one data set: general procedure: Fmoc solid-phase peptide synthesis; Rink amide; HBTU. Conditions: whole synthesis.
[Lys^4,Trp^5,Nle^7]BVD15 displayed an isolated yield of 40%.

Regarding bombesin, the isolated yield turned out to be 22%.

A short description of the next data set: general procedure: Fmoc solid-phase peptide synthesis; Rink amide MBHA; HBTU. Conditions: whole synthesis.
The substance DOTA-PESIN came in with an isolated yield of 7%.

As to [Lys^4(DOTA),Trp^5,Nle^7]BVD15, the isolated yield worked out at 45%. In turn, [Lys^4(aminooxy),Trp^5,Nle^7]BVD15 returned an isolated yield of 35%. “[Lys^4(aminooxy),Trp^5,Nle^7]BVD15scrambled” registered an isolated yield of 20%. Same read-out and setting: the result for aminooxy-PESIN reads 27%.

The nature of another data set: general procedure: Fmoc solid-phase peptide synthesis; Rink amide MBHA resin / Rink amide resin; HBTU. Conditions: conjugation step.
On to 24a (PESIN scrambled), for which the conjugation yield is reported as 49%. As for “24b ([Lys^4,Trp^5,Nle^7]BVD15 scrambled)”, the conjugation yield amounted to 63%. As to “24c (PESIN and [Lys^4,Trp^5,Nle^7]BVD15 scrambled)”, the conjugation yield was 61%.
